# Measured data: PubChem BioAssay AID1259331 (Drosophila RNAi Screening Center, 2017)
# Test: 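Fly transmembrane-protein genes that affect zinc toxicity in cultured cells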 (primary screen)
# Cell system: Drosophila S2R+ cells
# Reagent: long dsRNA against Drosophila genes
# Duration: 5 days (4 days knock-down, then 1 day zinc)
# Treatment: zinc chloride at 15 mM final level for 1 day
# Read-out: 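Luminescent ATP assay standing in for viability; Z score is the mean over three replicate plates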
# Direction: mean Z score: higher = more ATP than other wells, better survival under zinc; ATP luminescence: higher = more ATP, more viable cells
# Hit rule: 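a reagent is called a hit when its Z score is above 1.5 or below -1.5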
# Meaning of the calls: active = hit, ATP up or down; inactive = not a hit
# This is an unselected part of about 3,100 reagents tested. 126 of them (4.1%) count as active. 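Calls are per reagent; zinc was so toxic that few knock-downs lowered ATP further, so most hits raise ATP.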 The raw values are shown without normalisation. A number with no mark means an inactive call. Reagents against one gene are numbered here. Names joined by + are all predicted targets of the reagent. Not given: the amount of reagent.
gene,reagent no.,mean Z score,"ATP luminescence, replicate 1","ATP luminescence, replicate 2"
CG3078,1,-0.888,47686,47223
CG3078,2,-0.642,45881,48509
Dop1R2 (Dopamine 1-like receptor 2),1,0.259,79995,65263
Dop1R2 (Dopamine 1-like receptor 2),2,-0.149,57631,60581
CG13877 + pyx,1,-0.445,63599,61187
CG9706,1,-0.251,27302,32924
CG9706,2,1.46,75261,78537
st (scarlet),1,-0.383,27456,29239
st (scarlet),2,-0.894,42405,52930
CG7218,1,-0.654,37519,38668
CG7218,2,-1.11,43725,40011
moody,1,-0.149,58849,68418
Best1 (Bestrophin 1),1,0.48,70703,63479
Best1 (Bestrophin 1),2,0.442,62621,68761
Nhe1 (Na[+]/H[+] hydrogen exchanger 1),1,-0.122,53190,55892
Nhe1 (Na[+]/H[+] hydrogen exchanger 1),2,-0.408,51904,48930
Aplip1 (APPL-interacting protein 1),1,-0.0718,42285,52024
Aplip1 (APPL-interacting protein 1),2,-0.177,61644,52847
bib (big brain),1,1.18,70767,75055
wdp (windpipe),1,0.234,63947,66068
PK2-R1 (Pyrokinin 2 receptor 1),1,-0.529,33644,53241
PK2-R1 (Pyrokinin 2 receptor 1),2,-0.0634,51098,59174
Picot,1,0.14,32376,33015
Picot,2,-0.0139,53516,58386
CG4645,1,1.85 (active),71093,61938
CG4645,2,0.565,60083,64456
CG4462,1,-0.276,40793,45988
CG4462,2,-1,44635,47274
kcc (kazachoc),1,-0.381,27765,29915
kcc (kazachoc),2,-0.495,43485,43639
CG6696,1,0.884,49212,60392
CG6696,2,0.171,58231,57682
lbm (late bloomer),1,-0.013,72534,70149
lbm (late bloomer),2,0.0893,55213,52675
O-fut1 (O-fucosyltransferase 1),1,0.14,28859,35136
O-fut1 (O-fucosyltransferase 1),2,0.0121,59209,56585
CG11857,1,0.178,38273,63600
Osi4 (Osiris 4),1,-0.289,69961,52915
Osi4 (Osiris 4),2,-0.703,53824,47994
CG42287,1,-0.0887,50515,59703
ZnT33D (Zinc transporter 33D),1,0.257,54853,39885
ZnT33D (Zinc transporter 33D),2,0.0397,50419,54957
Osi20 (Osiris 20),1,-1.31,50652,40365
Osi20 (Osiris 20),2,-0.506,59997,47069
CG10505,1,-0.678,47561,49503
CG10505,2,-0.466,42405,57347
brv1 (brivido-1),1,-0.0339,75138,61301
promL (prominin-like),1,-0.136,31862,28142
CG4630,1,-0.585,28073,28827
CG4630,2,0.321,65588,66257
amrt (amaretto),1,-0.0523,65742,64611
amrt (amaretto),2,-0.378,55196,50961
nrv3 (nervana 3),1,-0.718,43266,44822
Cln3,1,0.0403,81453,58797
Cln3,2,0.371,64713,61695
CG17930,1,0.121,46091,48920
CG17930,2,0.965,73100,79481
slif (slimfast),1,-0.404,53756,52007
slif (slimfast),2,-0.266,50892,54143
Polr3I (RNA polymerase III subunit I),1,,5.87e5,5.71e5
CG12209,1,0.218,88418,76871
Octbeta1R (Octopamine beta1 receptor),1,-0.00046,35751,57339
Octbeta1R (Octopamine beta1 receptor),2,-0.177,46331,44840
Oatp74D (Organic anion transporting polypeptide 74D),1,-0.541,56328,57832
Oatp74D (Organic anion transporting polypeptide 74D),2,-0.0648,34313,28125
CG33969,1,-0.123,42354,43145
ppk15 (pickpocket 15),1,0.604,75244,76891
ppk15 (pickpocket 15),2,2.49 (active),94611,91501

Sorted by “ATP luminescence, replicate 2” (highest first): some entries from above.
gene,reagent no.,mean Z score,"ATP luminescence, replicate 1","ATP luminescence, replicate 2"
bib (big brain),1,1.18,70767,75055
wdp (windpipe),1,0.234,63947,66068
PK2-R1 (Pyrokinin 2 receptor 1),2,-0.0634,51098,59174
PK2-R1 (Pyrokinin 2 receptor 1),1,-0.529,33644,53241
